Assay results from article PMC11988799.
No constants are given. Whether binding was seen depends on the method and setting. Binding seen in cells or lysates may run through a third protein. Some entries that bind do so weakly or less than the wild type.

Biological target: T1, MD2, also known as lymphocyte antigen 96 (UniProt Q9JHF9)
T1 sequence: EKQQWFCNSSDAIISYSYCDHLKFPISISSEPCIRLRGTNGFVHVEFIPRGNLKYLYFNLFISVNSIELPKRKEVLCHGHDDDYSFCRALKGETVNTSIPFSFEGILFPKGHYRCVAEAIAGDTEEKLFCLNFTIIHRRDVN
Test: co-IP; endogenous proteins; 1.5 ug biotinylated anti-MD2 (or anti-Clec7a) antibody with 400-500 ug protein sample overnight at 4 °C, Protein G magnetic beads 2 h at 4 °C, four washes with IP lysis buffer, immunoblot

- binding: binds
B1: Clec7a (receptor, UniProt Q6QLQ4 1-244)
chain: MKYHSHIENLDEDGYTQLDFSTQDIHKRPRGSEKGSQAPSSPWRPIAVGLGILCFVVVVVAAVLGALGEYGHNSGRNPEEKDNFLSRNKENHKPTESSLDEKVAPSKASQTTGGFSQPCLPNWIMHGKSCYLFSFSGNSWYGSKRHCSQLGAHLLKIDNSKEFEFIESQTSSHRINAFWIGLSRNQSEGPWFWEDGSAFFPNSFQVRNTAPQESLLHNCVWIHGSEVYNQICNTSSYSICEKEL
